Results are given in words; binding and its absence hold for the method and conditions named. In cells and extracts the contact can be indirect. Some entries that bind do so weakly or less than the wild type. For some of these results: Where a sequence is shown, tags or fusion partners need not be part of it.

Amino acid sequences for entries named in this document (tags omitted).
UniProt Q94BT6: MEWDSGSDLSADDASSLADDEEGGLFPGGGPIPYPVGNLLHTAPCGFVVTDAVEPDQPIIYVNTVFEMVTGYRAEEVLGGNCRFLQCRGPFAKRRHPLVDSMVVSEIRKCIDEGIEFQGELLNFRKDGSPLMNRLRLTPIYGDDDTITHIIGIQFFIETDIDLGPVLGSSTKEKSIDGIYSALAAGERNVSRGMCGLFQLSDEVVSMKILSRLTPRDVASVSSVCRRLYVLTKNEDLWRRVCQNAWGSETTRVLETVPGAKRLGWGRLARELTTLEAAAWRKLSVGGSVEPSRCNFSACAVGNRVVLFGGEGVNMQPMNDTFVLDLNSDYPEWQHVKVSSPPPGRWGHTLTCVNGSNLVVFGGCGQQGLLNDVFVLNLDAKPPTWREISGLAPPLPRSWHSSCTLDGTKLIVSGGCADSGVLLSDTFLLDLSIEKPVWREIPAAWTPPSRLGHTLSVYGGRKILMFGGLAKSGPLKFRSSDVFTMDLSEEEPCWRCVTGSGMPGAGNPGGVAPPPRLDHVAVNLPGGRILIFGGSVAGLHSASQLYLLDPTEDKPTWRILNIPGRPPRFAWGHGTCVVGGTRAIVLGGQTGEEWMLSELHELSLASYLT
UniProt Q39057: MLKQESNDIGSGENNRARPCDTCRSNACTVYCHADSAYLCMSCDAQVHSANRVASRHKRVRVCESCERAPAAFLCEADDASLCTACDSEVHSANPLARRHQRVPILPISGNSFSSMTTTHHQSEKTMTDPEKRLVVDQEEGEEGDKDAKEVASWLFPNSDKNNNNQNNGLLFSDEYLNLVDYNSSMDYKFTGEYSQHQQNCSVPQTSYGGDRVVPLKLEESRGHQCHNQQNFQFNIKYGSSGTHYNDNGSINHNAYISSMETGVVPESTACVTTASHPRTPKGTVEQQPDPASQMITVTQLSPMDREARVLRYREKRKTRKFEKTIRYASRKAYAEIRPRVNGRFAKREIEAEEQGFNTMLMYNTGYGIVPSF
UniProt Q9C9W9: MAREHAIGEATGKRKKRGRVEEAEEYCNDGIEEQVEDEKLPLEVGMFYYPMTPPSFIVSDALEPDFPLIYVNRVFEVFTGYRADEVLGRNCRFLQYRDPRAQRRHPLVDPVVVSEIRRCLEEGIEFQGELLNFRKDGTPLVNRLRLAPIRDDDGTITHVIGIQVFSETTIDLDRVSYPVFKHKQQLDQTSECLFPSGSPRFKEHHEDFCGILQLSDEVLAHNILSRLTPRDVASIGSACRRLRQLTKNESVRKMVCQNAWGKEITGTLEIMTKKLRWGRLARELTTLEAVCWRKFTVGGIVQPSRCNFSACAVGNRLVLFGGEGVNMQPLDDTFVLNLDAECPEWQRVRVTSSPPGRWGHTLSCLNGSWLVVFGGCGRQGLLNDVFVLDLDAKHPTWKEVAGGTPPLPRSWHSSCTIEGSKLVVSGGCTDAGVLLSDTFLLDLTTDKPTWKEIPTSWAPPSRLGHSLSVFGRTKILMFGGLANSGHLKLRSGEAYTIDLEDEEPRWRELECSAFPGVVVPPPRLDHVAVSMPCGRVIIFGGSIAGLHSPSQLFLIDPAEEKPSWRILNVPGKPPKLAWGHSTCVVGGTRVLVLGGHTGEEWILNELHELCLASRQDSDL

The record followed here is PMC11026275.

For assay [1], the target named is ZEITLUPE (ZTL), TAP-tagged, transiently overexpressed in Nicotiana benthamiana (Arabidopsis thaliana) (UniProt Q94BT6). Description: co-IP; proteins transiently co-expressed in Nicotiana benthamiana leaves (3 days under LDs); TAP-tagged protein immunoprecipitated with anti-Protein A antibody, HA-tagged protein detected with anti-HA.
The target of assay [2] is CONSTANS (CO), TAP-tagged, transiently overexpressed in Nicotiana benthamiana (Arabidopsis thaliana) (UniProt Q39057). Described as above.
Assay [3] addresses FKF1 (FLAVIN-BINDING, KELCH REPEAT, F-BOX 1), wild type, transiently overexpressed in Nicotiana benthamiana (Arabidopsis thaliana) (UniProt Q9C9W9). The assay is described as above.
The target in assay [4] is T1, GIGANTEA (GI), TAP-tagged, expressed from the GI promoter in transgenic Arabidopsis (Arabidopsis thaliana) (UniProt Q9SQI2).
T1 sequence: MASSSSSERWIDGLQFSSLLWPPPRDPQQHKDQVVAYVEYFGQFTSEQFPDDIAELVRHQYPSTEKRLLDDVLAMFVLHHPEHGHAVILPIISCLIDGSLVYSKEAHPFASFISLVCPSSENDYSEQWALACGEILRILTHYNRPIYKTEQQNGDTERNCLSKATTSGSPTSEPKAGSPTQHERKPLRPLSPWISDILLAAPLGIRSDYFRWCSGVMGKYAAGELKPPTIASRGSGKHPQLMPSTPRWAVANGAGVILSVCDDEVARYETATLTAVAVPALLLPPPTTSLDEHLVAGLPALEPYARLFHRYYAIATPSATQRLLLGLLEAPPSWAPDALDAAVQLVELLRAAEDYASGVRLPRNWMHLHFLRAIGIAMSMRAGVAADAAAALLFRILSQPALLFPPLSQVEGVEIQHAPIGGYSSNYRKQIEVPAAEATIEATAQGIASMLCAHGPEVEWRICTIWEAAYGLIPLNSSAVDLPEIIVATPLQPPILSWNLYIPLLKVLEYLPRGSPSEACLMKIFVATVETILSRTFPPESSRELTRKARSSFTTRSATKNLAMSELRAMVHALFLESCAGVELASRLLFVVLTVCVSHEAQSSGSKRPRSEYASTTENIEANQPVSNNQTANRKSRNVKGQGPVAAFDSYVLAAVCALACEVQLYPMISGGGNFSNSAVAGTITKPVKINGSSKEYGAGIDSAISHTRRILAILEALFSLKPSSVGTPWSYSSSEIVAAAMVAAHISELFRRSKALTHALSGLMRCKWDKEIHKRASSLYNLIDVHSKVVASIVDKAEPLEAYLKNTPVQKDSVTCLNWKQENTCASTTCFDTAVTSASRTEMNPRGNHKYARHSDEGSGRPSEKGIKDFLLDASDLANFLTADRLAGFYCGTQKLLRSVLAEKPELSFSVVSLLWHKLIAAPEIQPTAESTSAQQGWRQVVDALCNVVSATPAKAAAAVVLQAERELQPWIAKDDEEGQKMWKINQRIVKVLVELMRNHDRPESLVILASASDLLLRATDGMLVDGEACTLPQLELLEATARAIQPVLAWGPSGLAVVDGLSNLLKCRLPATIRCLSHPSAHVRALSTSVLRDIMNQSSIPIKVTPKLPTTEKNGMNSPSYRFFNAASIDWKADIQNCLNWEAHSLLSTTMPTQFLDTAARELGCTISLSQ
Description: co-IP; 10-day-old transgenic Arabidopsis seedlings under LDs, harvested at ZT12; GI-TAP immunoprecipitated with anti-Protein A antibody, HA-FKF1 detected with anti-HA; also under white, red or blue light (Supplementary Fig. S3).

With “FKF1 (FLAVIN-BINDING, KELCH REPEAT, F-BOX 1), wild type, transiently overexpressed in Nicotiana benthamiana (from UniProt Q9C9W9 1-619)”, the binding entry in assay [1], in assay [2] and in assay [3] was “binds” in each case.

On to “HA-FKF1, wild type, expressed from the FKF1 promoter in transgenic Arabidopsis (from UniProt Q9C9W9 1-619)”, for which the binding entry in assay [4] is recorded as “binds”.
